Experimental data as given in the supplement of paper PMC10849652.
The list shows a part of the results.

Sequences of proteins named here, by UniProt entry; tags and fusion partners are left off. A change or cut given only in a name is not applied to a line headed by its entry.
UniProt Q9NSK7: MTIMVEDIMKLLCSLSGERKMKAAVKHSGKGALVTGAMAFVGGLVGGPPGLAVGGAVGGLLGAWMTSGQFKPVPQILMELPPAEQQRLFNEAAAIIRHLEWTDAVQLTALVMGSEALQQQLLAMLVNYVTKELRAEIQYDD
UniProt Q504U0: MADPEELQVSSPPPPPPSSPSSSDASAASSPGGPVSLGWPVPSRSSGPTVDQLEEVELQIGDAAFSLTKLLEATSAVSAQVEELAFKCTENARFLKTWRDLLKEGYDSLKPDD
UniProt Q9BUW7: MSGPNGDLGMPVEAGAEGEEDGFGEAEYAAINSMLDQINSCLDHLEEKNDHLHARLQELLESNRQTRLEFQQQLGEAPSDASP
UniProt Q7Z6I8: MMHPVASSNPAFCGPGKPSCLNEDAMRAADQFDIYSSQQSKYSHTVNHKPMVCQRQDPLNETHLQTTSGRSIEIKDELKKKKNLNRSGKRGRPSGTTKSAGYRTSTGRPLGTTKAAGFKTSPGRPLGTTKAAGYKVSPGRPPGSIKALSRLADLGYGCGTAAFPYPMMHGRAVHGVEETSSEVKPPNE
UniProt Q16581: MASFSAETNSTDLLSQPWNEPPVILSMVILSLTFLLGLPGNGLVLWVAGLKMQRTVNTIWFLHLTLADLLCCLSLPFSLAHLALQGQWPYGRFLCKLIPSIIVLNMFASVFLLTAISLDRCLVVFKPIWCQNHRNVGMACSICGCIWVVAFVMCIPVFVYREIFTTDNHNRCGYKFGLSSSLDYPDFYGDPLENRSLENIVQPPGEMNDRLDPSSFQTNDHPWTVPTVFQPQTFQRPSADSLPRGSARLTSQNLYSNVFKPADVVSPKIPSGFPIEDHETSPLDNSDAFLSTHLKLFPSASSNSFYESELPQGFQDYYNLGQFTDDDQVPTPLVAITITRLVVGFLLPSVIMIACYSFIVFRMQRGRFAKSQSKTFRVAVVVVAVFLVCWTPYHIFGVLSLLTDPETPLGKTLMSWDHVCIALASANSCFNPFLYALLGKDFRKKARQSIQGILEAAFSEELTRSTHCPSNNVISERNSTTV
UniProt P02748: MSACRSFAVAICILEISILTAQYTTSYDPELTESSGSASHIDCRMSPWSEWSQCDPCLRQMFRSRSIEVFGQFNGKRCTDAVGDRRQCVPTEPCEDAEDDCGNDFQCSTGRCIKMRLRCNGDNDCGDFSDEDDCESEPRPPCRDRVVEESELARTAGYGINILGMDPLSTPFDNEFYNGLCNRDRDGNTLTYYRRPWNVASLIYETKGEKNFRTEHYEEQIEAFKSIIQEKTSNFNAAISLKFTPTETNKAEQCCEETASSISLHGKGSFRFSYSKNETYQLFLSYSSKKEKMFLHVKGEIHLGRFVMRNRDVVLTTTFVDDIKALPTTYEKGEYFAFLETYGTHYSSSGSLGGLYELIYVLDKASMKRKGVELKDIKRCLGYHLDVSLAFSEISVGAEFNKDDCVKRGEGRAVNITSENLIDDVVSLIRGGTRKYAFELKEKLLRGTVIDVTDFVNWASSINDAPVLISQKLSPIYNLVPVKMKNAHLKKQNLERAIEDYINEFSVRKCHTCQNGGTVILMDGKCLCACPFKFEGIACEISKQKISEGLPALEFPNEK
UniProt Q9BRJ6: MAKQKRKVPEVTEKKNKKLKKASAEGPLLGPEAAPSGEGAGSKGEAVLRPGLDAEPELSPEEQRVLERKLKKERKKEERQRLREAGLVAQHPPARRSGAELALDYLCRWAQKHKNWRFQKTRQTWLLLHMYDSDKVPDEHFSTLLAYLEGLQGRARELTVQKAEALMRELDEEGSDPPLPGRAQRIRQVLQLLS
UniProt Q9BX69: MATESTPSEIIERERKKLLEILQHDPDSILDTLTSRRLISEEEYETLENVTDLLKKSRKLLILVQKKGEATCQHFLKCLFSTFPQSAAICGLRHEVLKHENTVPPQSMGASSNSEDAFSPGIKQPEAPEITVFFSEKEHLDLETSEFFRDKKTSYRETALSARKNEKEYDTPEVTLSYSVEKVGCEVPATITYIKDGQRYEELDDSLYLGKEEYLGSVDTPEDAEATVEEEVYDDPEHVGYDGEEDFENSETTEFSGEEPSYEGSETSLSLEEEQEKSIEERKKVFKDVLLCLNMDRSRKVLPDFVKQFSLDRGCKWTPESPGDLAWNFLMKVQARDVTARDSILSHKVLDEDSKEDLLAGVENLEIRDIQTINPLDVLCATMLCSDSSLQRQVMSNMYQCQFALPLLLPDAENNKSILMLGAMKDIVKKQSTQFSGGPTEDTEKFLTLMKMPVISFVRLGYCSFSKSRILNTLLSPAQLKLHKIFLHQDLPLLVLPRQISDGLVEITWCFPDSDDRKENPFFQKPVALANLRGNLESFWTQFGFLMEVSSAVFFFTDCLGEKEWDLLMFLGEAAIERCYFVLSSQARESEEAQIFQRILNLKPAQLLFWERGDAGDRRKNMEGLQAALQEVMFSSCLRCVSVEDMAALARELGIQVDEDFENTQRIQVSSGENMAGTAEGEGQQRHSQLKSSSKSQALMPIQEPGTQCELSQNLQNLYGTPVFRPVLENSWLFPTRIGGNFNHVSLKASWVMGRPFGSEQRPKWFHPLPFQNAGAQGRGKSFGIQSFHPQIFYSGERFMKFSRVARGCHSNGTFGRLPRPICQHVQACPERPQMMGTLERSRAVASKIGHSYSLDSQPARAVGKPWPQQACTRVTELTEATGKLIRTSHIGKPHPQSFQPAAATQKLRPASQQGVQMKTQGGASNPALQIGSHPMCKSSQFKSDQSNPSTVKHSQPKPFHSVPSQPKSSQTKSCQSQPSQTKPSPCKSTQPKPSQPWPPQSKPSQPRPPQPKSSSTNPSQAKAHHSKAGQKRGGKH
UniProt Q9H257: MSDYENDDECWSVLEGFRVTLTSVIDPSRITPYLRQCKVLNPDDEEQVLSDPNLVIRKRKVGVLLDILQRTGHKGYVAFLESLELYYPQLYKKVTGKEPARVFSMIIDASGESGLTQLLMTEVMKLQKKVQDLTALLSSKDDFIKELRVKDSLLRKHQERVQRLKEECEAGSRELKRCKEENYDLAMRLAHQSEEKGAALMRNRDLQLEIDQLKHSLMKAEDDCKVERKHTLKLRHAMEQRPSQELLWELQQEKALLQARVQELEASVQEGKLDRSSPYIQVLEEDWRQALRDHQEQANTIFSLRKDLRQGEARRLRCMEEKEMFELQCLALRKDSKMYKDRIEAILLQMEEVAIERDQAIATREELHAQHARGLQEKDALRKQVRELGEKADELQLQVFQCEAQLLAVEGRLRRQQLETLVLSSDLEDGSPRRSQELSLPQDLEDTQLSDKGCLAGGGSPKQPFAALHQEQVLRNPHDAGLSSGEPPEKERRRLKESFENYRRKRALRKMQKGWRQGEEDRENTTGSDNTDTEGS
UniProt Q14012: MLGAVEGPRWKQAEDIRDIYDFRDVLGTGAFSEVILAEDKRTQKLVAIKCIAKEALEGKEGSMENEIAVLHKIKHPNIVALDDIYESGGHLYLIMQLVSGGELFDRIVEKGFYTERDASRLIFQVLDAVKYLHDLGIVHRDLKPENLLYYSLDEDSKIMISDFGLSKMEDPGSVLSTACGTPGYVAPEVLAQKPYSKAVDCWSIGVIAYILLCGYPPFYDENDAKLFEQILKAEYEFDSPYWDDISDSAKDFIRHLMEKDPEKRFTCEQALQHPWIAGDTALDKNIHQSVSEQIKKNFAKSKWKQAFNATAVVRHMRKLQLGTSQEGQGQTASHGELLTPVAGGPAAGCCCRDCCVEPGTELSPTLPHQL
UniProt Q96L46: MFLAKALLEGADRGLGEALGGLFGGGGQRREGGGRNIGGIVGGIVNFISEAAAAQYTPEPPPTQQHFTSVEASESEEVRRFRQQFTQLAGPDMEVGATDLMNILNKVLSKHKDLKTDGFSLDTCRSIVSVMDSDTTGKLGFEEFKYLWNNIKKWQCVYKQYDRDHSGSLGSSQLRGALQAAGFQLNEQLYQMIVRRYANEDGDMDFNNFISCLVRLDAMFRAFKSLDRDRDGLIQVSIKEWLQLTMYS
UniProt Q5U649: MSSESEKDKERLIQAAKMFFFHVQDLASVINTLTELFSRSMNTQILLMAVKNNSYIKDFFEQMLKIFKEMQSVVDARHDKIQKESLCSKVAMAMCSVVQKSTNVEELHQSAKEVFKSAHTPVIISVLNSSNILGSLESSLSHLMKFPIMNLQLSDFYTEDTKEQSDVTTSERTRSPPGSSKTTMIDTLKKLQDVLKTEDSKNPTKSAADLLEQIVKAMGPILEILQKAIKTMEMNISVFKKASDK
UniProt P27482, whole entry, looked up: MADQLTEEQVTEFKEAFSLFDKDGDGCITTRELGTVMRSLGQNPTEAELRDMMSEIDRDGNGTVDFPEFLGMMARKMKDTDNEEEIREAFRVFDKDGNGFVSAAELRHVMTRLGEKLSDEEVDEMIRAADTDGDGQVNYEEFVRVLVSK
UniProt Q96GV9: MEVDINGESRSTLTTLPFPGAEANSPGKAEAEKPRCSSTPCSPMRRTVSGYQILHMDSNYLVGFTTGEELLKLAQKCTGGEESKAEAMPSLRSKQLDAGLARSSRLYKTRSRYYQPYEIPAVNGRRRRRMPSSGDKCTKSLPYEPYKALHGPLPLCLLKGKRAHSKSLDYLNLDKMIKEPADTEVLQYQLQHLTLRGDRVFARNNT
UniProt Q8N5S9: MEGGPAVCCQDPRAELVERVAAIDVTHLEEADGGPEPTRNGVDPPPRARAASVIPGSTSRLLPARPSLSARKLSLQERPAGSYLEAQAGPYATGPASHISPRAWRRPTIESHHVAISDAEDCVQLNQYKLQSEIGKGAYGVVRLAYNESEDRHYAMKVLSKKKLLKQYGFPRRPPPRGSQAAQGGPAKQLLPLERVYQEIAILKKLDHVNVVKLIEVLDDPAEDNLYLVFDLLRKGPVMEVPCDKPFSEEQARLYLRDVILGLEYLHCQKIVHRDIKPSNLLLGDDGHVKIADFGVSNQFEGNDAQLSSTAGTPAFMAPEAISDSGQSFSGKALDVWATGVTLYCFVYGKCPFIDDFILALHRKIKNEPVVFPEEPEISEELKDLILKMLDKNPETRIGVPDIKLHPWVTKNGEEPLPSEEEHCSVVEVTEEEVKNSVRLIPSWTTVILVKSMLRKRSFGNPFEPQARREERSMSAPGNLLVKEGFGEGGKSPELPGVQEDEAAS
UniProt Q32NC0: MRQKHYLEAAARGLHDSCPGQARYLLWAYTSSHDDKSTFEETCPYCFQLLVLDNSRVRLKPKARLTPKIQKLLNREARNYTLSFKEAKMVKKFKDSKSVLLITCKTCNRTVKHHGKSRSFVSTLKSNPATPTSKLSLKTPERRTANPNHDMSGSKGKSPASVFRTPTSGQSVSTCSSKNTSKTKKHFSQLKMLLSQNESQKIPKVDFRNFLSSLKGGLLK
UniProt Q6UX52: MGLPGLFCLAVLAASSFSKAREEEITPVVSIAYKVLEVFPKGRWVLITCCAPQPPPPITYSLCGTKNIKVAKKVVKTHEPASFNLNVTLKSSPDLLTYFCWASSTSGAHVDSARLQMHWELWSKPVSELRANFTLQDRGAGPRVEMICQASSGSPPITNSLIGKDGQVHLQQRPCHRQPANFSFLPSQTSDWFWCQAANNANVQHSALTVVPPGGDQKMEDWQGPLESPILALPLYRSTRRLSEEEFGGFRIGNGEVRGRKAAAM
UniProt Q9BTV7: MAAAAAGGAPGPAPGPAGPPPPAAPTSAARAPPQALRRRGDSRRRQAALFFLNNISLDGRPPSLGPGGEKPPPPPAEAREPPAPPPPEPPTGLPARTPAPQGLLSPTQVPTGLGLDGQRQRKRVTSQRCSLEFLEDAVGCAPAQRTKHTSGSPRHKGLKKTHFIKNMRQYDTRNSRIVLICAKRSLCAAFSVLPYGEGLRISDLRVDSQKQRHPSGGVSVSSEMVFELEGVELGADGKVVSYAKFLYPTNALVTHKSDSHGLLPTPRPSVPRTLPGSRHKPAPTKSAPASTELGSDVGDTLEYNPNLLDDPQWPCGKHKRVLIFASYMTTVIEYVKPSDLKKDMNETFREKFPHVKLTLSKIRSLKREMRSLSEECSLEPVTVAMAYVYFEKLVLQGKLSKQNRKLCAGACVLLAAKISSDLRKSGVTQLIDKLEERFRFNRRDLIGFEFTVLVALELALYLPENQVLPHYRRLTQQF
UniProt Q01518, whole entry, looked up: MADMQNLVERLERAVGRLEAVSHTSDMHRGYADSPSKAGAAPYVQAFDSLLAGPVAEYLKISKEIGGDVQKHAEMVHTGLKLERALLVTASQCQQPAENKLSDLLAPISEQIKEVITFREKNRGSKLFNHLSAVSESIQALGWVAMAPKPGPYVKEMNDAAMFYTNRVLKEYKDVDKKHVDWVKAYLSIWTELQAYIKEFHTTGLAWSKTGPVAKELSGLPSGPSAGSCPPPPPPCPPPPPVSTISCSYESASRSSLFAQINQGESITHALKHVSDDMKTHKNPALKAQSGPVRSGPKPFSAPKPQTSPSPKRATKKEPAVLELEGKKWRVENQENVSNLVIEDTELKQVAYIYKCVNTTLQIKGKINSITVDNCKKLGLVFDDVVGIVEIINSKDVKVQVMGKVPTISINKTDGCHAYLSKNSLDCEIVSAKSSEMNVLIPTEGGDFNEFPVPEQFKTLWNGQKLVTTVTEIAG

Compound: Cc1ncc(-c2ccnc(Nc3ccc(S(C)(=O)=O)cc3)n2)n1C(C)C
Test: log2 fold change, soluble protein after heating vs DMSO (PISA); higher = thermal stabilisation; K562 cells, 10 uM, 30 min; active = over 0.2 and 3.5 SD of the protein, either way, in both replicates (recomputed)
Outline: (§1)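 Aliquots of K562 cells (2×10^6 cells/mL) treated with 10 μM compound for 30 min were heated for 3 min over 48°C-58°C. After pooling and extraction in PBS with 0.5% NP-40 at 4°C, soluble protein from a 21,000xg, 90 min spin was quantified by TMTpro 16plex LC-MS/MS with channel sums equalised. Thermal stability is expressed against control samples, from duplicates, as a log2 fold change.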

Target	log2 fold change
C19orf12 (UniProt Q9NSK7)	inactive: 0.101
C4orf46 (UniProt Q504U0)	inactive: 0.027
C9orf16 (UniProt Q9BUW7)	inactive: 0.03
C3orf86 (UniProt P0DN24)	inactive: 0.587
C5orf24 (UniProt Q7Z6I8)	inactive: -0.538
C3AR1 (UniProt Q16581)	inactive: -0.212
CA2 (UniProt P00918)	inactive: 0.11

Compound: Cn1cc(-c2ccc3c(c2)CCN3C(=O)Cc2cccc(C(F)(F)F)c2)c2c(N)ncnc21
Test: as above
Outline: as §1

Target	log2 fold change
C9 (UniProt P02748)	inactive: 0.026
C7orf50 (UniProt Q9BRJ6)	inactive: -0.158
BSN (UniProt Q9UPA5)	inactive: 0.004

Compound: Cn1cc(-c2ccc3nnc(C(F)(F)c4ccc5ncccc5c4)n3n2)cn1
Test: as above
Outline: as §1

Target	log2 fold change
CARD6 (UniProt Q9BX69)	inactive: -0.486
CARD9 (UniProt Q9H257)	inactive: 0.085
C9 (UniProt P02748)	inactive: 0.044
C7orf50 (UniProt Q9BRJ6)	inactive: -0.128
CAMK1 (UniProt Q14012)	inactive: 0.007
CAPNS2 (UniProt Q96L46)	inactive: 0
BTBD1 (UniProt Q9H0C5)	inactive: 0.22

Compound: Cn1cncc1[C@@](N)(c1ccc(Cl)cc1)c1ccc2c(c1)c(-c1cccc(Cl)c1)cc(=O)n2C [tipifarnib]
Test: as above
Outline: as §1

Target	log2 fold change
C19orf12 (UniProt Q9NSK7)	inactive: -0.079
BTBD10 isoform 2 (UniProt Q9BSF8)	inactive: 0.158
C12orf60 (UniProt Q5U649)	inactive: -0.14
CALML3 (UniProt P27482)	inactive: 0.213
C5orf30 (UniProt Q96GV9)	inactive: 0.152
C5orf24 (UniProt Q7Z6I8)	inactive: 0.159
CAMKK1 isoform 2 (UniProt Q8N5S9)	inactive: 0.043
CA2 (UniProt P00918)	inactive: -0.026

Compound: FC(F)(F)c1ccc(/C=C/c2nc(COc3ccc(CCCCn4ccnn4)cc3)co2)cc1 [mubritinib]
Test: as above
Outline: as §1

Target	log2 fold change
C19orf12 (UniProt Q9NSK7)	inactive: 0.061
C9orf16 (UniProt Q9BUW7)	inactive: -0.019
C5orf34 (UniProt Q96MH7)	inactive: -0.057
C18orf21 (UniProt Q32NC0)	inactive: -0.201
CALML3 (UniProt P27482)	inactive: 0.173
C17orf99 (UniProt Q6UX52)	inactive: -0.306
C9 (UniProt P02748)	inactive: -0.18
C3orf86 (UniProt P0DN24)	inactive: -0.081
C5orf24 (UniProt Q7Z6I8)	inactive: 0.044
CABIN1 (UniProt Q9Y6J0)	inactive: 0.046
CA2 (UniProt P00918)	inactive: 0.045
CABLES2 (UniProt Q9BTV7)	inactive: 0.113
CAPNS2 (UniProt Q96L46)	inactive: -0.488
CAP1 isoform 2 (UniProt Q01518)	inactive: 0.156
